Data taken from article PMC3854969.

Sequences of proteins named here, by UniProt entry; tags and fusion partners are left off. A change or cut given only in a name is not applied to a line headed by its entry.
UniProt Q3SXY8: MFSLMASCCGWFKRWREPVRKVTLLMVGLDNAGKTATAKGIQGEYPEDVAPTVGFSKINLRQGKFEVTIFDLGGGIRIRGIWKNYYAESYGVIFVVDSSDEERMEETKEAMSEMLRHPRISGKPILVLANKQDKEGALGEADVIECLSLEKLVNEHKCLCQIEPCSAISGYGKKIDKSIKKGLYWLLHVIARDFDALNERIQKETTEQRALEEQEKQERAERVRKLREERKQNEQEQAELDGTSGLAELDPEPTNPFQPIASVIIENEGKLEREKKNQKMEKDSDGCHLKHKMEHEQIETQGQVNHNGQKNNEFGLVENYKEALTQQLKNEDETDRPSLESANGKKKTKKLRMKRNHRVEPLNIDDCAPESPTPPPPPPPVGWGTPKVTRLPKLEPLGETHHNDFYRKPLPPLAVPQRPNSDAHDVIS
UniProt A0AVF1: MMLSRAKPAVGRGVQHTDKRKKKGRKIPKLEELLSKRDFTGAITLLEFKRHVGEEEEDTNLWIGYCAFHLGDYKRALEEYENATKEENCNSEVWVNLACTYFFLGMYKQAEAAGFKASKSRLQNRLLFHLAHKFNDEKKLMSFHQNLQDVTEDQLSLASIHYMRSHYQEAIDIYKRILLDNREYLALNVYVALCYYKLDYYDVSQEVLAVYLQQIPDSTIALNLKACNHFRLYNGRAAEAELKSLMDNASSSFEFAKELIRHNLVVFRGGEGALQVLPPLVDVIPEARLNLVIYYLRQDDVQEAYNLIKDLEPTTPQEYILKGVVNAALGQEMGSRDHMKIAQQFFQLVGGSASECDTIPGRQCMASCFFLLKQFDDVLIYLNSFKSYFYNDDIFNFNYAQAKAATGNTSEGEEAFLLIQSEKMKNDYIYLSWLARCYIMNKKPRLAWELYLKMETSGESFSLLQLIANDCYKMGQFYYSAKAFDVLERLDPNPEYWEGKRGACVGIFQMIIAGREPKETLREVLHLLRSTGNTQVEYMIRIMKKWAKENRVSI

How the values were obtained:
[1] = target: N-terminally SF (Strep-Flag)-tagged human ARL13B (wild type) (human) (UniProt Q3SXY8); assay: affinity purification with mass spectrometry; SILAC with one-step Strep-Tactin purification from HEK293T lysates; SF-tagged ARL13B against SF-TAP alone or mutated SF-tagged ARL13B; eluates combined; quantitative MS, at least 2-fold enrichment
[2] = target: C-terminally SF (Strep-Flag)-tagged human ARL13B (wild type) (human) (UniProt Q3SXY8); assay: affinity purification with mass spectrometry; SF-TAP: two steps (Strep-Tactin Superflow, then anti-Flag M2 agarose, Flag peptide elution) from lysates of HEK293T cells transiently expressing SF-tagged ARL13B; lysis in TBS with 0.5% Nonidet-P40, 4°C; compared with SF tag alone; LC-MS/MS
[3] = target: N-terminally SF (Strep-Flag)-tagged human ARL13B (wild type) (human) (UniProt Q3SXY8); assay: as above
[4] = target: SF-ARL13B(T35N), predicted GDP-locked human ARL13B (human) (UniProt Q3SXY8); assay: as above

Measured: binding

tetratricopeptide repeat domain 26 (from UniProt A0AVF1 1-554)
binds: all assays above

B1: intraflagellar transport 74 (protein, UniProt Q96LB3 1-600)
chain: MASNHKSSAARPVSRGGVGLTGRPPSGIRPLSGNIRVATAMPPGTARPGSRGCPIGTGGVLSSQIKVAHRPVTQQGLTGMKTGTKGPQRQILDKSYYLGLLRSKISELTTEVNKLQKGIEMYNQENSVYLSYEKRAETLAVEIKELQGQLADYNMLVDKLNTNTEMEEVMNDYNMLKAQNDRETQSLDVIFTERQAKEKQIRSVEEEIEQEKQATDDIIKNMSFENQVKYLEMKTTNEKLLQELDTLQQQLDSQNMKKESLEAEIAHSQVKQEAVLLHEKLYELESHRDQMIAEDKSIGSPMEEREKLLKQIKDDNQEIASMERQLTDTKEKINQFIEEIRQLDMDLEEHQGEMNQKYKELKKREEHMDTFIETFEETKNQELKRKAQIEANIVALLEHCSRNINRIEQISSITNQELKMMQDDLNFKSTEVQKSQSTAQNLTSDIQRLQLDLQKMELLESKMTEEQHSLKSKIKQMTTDLEIYNDLPALKSSGEEKIKKLHQERMILSTHRNAFKKIMEKQNIEYEALKTQLQENETHSQLTNLERKWQHLEQNNFAMKEFIATKSQESDYQPIKKNVTKQIAEYNKTIVDALHSTSGN
binds: all assays above

B2: tetratricopeptide repeat domain 30A (protein, UniProt Q86WT1 1-665)
chain: MAGLSGAQIPDGEFTALVYRLIRDARYAEAVQLLGRELQRSPRSRAGLSLLGYCYYRLQEFALAAECYEQLGQLHPELEQYRLYQAQALYKACLYPEATRVAFLLLDNPAYHSRVLRLQAAIKYSEGDLPGSRSLVEQLLSGEGGEESGGDNETDGQVNLGCLLYKEGQYEAACSKFSATLQASGYQPDLSYNLALAYYSSRQYASALKHIAEIIERGIRQHPELGVGMTTEGFDVRSVGNTLVLHQTALVEAFNLKAAIEYQLRNYEVAQETLTDMPPRAEEELDPVTLHNQALMNMDARPTEGFEKLQFLLQQNPFPPETFGNLLLLYCKYEYFDLAADVLAENAHLTYKFLTPYLYDFLDALITCQTAPEEAFIKLDGLAGMLTEQLRRLTKQVQEARHNRDDEAIKKAVNEYDETMEKYIPVLMAQAKIYWNLENYPMVEKVFRKSVEFCNDHDVWKLNVAHVLFMQENKYKEAIGFYEPIVKKHYDNILNVSAIVLANLCVSYIMTSQNEEAEELMRKIEKEEEQLSYDDPNRKMYHLCIVNLVIGTLYCAKGNYEFGISRVIKSLEPYNKKLGTDTWYYAKRCFLSLLENMSKHMIVIHDSVIQECVQFLGHCELYGTNIPAVIEQPLEEERMHVGKNTVTDESRQLKALIYEIIGWNK
binds: all assays above

B3: HEAT repeat containing 3 (protein, UniProt Q7Z4Q2 1-680)
chain: MGKSRTKRFKRPQFSPTGDCQAEAAAAANGTGGEEDDGPAAELLEKLQHPSAEVRECACAGLARLVQQRPALPGLARRDAVRRLGPLLLDPSLAVRETAAGALRNLSACGGFEVCDDMVTKDIMTPLVALLKECSAGLDSNEMSLQEKKDQNRNSIENIANETVNVLWNICECSSRAVSIFNKEGCLEIVLKYLSRFPTNVDLAISVAYCLQTVTEDNPELLKSFSATALNMLESALLSPVSSMESLLLKTLVAGTIWNLKDIIPCKSQAEIINALLKILSEVLGMDAGEMVIQMKEAETQRLKTAAEAEEILENTNGDDLIEDDEMEGISHKRRVRRKTFVSDLLPPTDKELRETIALLTAQQTALEIIVNMCCNEDPSDDEWEELSSSDESDAFMENSFSECGGQLFSPLCLSHEVHTALTNYLIPKKIFEKTAFPNSIAVDLCSRNPTWKPLIRKMNTIQCRALFCLQSLVSLLDVEHLGGAAALQTLAQHLSQLLFSQPDFAKHVDFLEAISSALRALLQTMASKNISQCMTPDQLMTLCKAGIHSSNVGVRVNVVSILGITGSVLAKEDGTLETLKNIGCFLLEVTTKDPSLVVAGEALDALFDVFADGKEAERASIQIKLLSALKEFQPVFKMKIRKEGRGNYSTDQLCVLDNVKMNLRRFIAYQETVEKRLTS
binds: [1] | [3]

B4: IFT22 (RAS oncogene family-like 5) (protein, UniProt Q9H7X7 1-185)
chain: MLKAKILFVGPCESGKTVLANFLTESSDITEYSPTQGVRILEFENPHVTSNNKGTGCEFELWDCGGDAKFESCWPALMKDAHGVVIVFNADIPSHRKEMEMWYSCFVQQPSLQDTQCMLIAHHKPGSGDDKGSLSLSPPLNKLKLVHSNLEDDPEEIRMEFIKYLKSIINSMSESRDREEMSIMT
binds: all assays above

B5: intraflagellar transport 52 (protein, UniProt Q9Y366 1-437)
chain: MEKELRSTILFNAYKKEIFTTNNGYKSMQKKLRSNWKIQSLKDEITSEKLNGVKLWITAGPREKFTAAEFEILKKYLDTGGDVFVMLGEGGESRFDTNINFLLEEYGIMVNNDAVVRNVYHKYFHPKEALVSSGVLNREISRAAGKAVPGIIDEESSGNNAQALTFVYPFGATLSVMKPAVAVLSTGSVCFPLNRPILAFYHSKNQGGKLAVLGSCHMFSDQYLDKEENSKIMDVVFQWLTTGDIHLNQIDAEDPEISDYMMLPYTATLSKRNRECLQESDEIPRDFTTLFDLSIFQLDTTSFHSVIEAHEQLNVKHEPLQLIQPQFETPLPTLQPAVFPPSFRELPPPPLELFDLDETFSSEKARLAQITNKCTEEDLEFYVRKCGDILGVTSKLPKDQQDAKHILEHVFFQVVEFKKLNQEHDIDTSETAFQNNF
binds: all assays above

B6: serum amyloid A-like 1 (protein, UniProt Q96ER3 1-474)
chain: MDRNPSPPPPGRDKEEEEEVAGGDCIGSTVYSKHWLFGVLSGLIQIVSPENTKSSSDDEEQLTELDEEMENEICRVWDMSMDEDVALFLQEFNAPDIFMGVLAKSKCPRLREICVGILGNMACFQEICVSISSDKNLGQVLLHCLYDSDPPTLLETSRLLLTCLSQAEVASVWVERIQEHPAIYDSICFIMSSSTNVDLLVKVGEVVDKLFDLDEKLMLEWVRNGAAQPLDQPQEESEEQPVFRLVPCILEAAKQVRSENPEWLDVYMHILQLLTTVDDGIQAIVHCPDTGKDIWNLLFDLVCHEFCQSDDPPIILQEQKTVLASVFSVLSAIYASQTEQEYLKIEKVDLPLIDSLIRVLQNMEQCQKKPENSAESNTEETKRTDLTQDDFHLKILKDILCEFLSNIFQALTKETVAQGVKEGQLSKQKCSSAFQNLLPFYSPVVEDFIKILREVDKALADDLEKNFPSLKVQT
binds: [1] | [3]

B7: intraflagellar transport 27 (protein, UniProt Q9BW83 1-186)
chain: MVKLAAKCILAGDPAVGKTALAQIFRSDGAHFQKSYTLTTGMDLVVKTVPVPDTGDSVELFIFDSAGKELFSEMLDKLWESPNVLCLVYDVTNEESFNNCSKWLEKARSQAPGISLPGVLVGNKTDLAGRRAVDSAEARAWALGQGLECFETSVKEMENFEAPFHCLAKQFHQLYREKVEVFRALA
binds: all assays above

Results are given in words; binding and its absence hold for the method and conditions named. In cells and extracts the contact can be indirect. Here binding means that the protein was enriched with, or labelled near, the bait; the list need not be complete. Where a sequence is shown, tags or fusion partners need not be part of it.
